Reference: PubChem BioAssay AID1259308 (NCATS, 2017)
Assay: 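Genes whose loss raises luciferase production in HEK293 cells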 (primary screen). Cell system: human HEK293 embryonic kidney cells stably expressing firefly luciferase (HEK-CMV-Luc2-Hygro). Reagents: single siRNA against human genes, 0.8 pmol siRNA per well. Time to read-out: 72 h. Measured: 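Reporter luminescence and viable-cell signal on separate replicate plates, given as percent of non-targeting control and median/MAD z-scores, plus per-cell luciferase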. Scale: total luciferase, z-score and total luciferase, % of control: higher = more reporter protein produced. Hit rule: 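An siRNA counts as active if its total luciferase robust z-score exceeds 3; genes with two or more such siRNAs out of three were retested with fresh siRNAs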. Meaning of the calls: active = raised luciferase; inactive = no rise.
Shown is a random part of about 59,000 reagents tested. About 1,510 of them (2.6%) were called active. 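Calls use total luciferase alone and ignore viability, so some active siRNAs may act by altering cell number.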 The numbers tell different reagents against one gene apart. Not all columns of the deposit are shown.

GYPE #1: total luciferase, z-score = -0.889; total luciferase, % of control = 64.2; call = inactive
GYPE #2: total luciferase, z-score = 0.439; total luciferase, % of control = 90.6; call = inactive
GYPE #3: total luciferase, z-score = -0.404; total luciferase, % of control = 73.9; call = inactive
BIRC6 #1: total luciferase, z-score = 0.944; total luciferase, % of control = 101; call = inactive
BIRC6 #2: total luciferase, z-score = -0.755; total luciferase, % of control = 66.9; call = inactive
BIRC6 #3: total luciferase, z-score = 0.228; total luciferase, % of control = 86.4; call = inactive
TMEM268 #1: total luciferase, z-score = 1.46; total luciferase, % of control = 111; call = inactive
TMEM268 #2: total luciferase, z-score = 0.0101; total luciferase, % of control = 82.1; call = inactive
TMEM268 #3: total luciferase, z-score = 0.199; total luciferase, % of control = 85.9; call = inactive
ZNF23 #1: total luciferase, z-score = -0.873; total luciferase, % of control = 64.5; call = inactive
ZNF23 #2: total luciferase, z-score = -2.24; total luciferase, % of control = 37.4; call = inactive
ZNF23 #3: total luciferase, z-score = -0.573; total luciferase, % of control = 70.5; call = inactive
SLC14A1 #1: total luciferase, z-score = -0.258; total luciferase, % of control = 76.8; call = inactive
SLC14A1 #2: total luciferase, z-score = 1.42; total luciferase, % of control = 110; call = inactive
SLC14A1 #3: total luciferase, z-score = -1.05; total luciferase, % of control = 61.1; call = inactive
OR8K5 #1: total luciferase, z-score = -0.472; total luciferase, % of control = 72.5; call = inactive
OR8K5 #2: total luciferase, z-score = 0.602; total luciferase, % of control = 93.9; call = inactive
OR8K5 #3: total luciferase, z-score = -2.14; total luciferase, % of control = 39.3; call = inactive
IL7 #1: total luciferase, z-score = 0.664; total luciferase, % of control = 95.1; call = inactive
IL7 #2: total luciferase, z-score = -0.445; total luciferase, % of control = 73; call = inactive
IL7 #3: total luciferase, z-score = -0.423; total luciferase, % of control = 73.5; call = inactive
TMUB2 #1: total luciferase, z-score = -0.673; total luciferase, % of control = 68.5; call = inactive
TMUB2 #2: total luciferase, z-score = -0.905; total luciferase, % of control = 63.9; call = inactive
TMUB2 #3: total luciferase, z-score = 1.06; total luciferase, % of control = 103; call = inactive
MAS1 #1: total luciferase, z-score = 1.1; total luciferase, % of control = 104; call = inactive
MAS1 #2: total luciferase, z-score = -0.509; total luciferase, % of control = 71.8; call = inactive
MAS1 #3: total luciferase, z-score = 1.73; total luciferase, % of control = 116; call = inactive
APOC2 #1: total luciferase, z-score = -0.159; total luciferase, % of control = 78.7; call = inactive
APOC2 #2: total luciferase, z-score = 0.0561; total luciferase, % of control = 83; call = inactive
APOC2 #3: total luciferase, z-score = -1.36; total luciferase, % of control = 54.8; call = inactive
ZWILCH #1: total luciferase, z-score = -0.908; total luciferase, % of control = 63.8; call = inactive
ZWILCH #2: total luciferase, z-score = -0.252; total luciferase, % of control = 76.9; call = inactive
ZWILCH #3: total luciferase, z-score = -0.0765; total luciferase, % of control = 80.4; call = inactive
OR4C46 #1: total luciferase, z-score = 0.355; total luciferase, % of control = 89; call = inactive
OR4C46 #2: total luciferase, z-score = 0.783; total luciferase, % of control = 97.5; call = inactive
OR4C46 #3: total luciferase, z-score = -1.66; total luciferase, % of control = 48.9; call = inactive
PKHD1L1 #1: total luciferase, z-score = -0.753; total luciferase, % of control = 66.9; call = inactive
PKHD1L1 #2: total luciferase, z-score = -0.104; total luciferase, % of control = 79.8; call = inactive
PKHD1L1 #3: total luciferase, z-score = -0.992; total luciferase, % of control = 62.2; call = inactive
FKBP4 #1: total luciferase, z-score = -0.243; total luciferase, % of control = 77.1; call = inactive
FKBP4 #2: total luciferase, z-score = 1.05; total luciferase, % of control = 103; call = inactive
FKBP4 #3: total luciferase, z-score = 0.0557; total luciferase, % of control = 83; call = inactive
